Measurements reported in patent publication US20220119522A1.
No constants are given. Whether binding was seen depends on the method and setting. Some entries that bind do so weakly or less than the wild type.

How the values were obtained:
[1] = biological target: T1, human soluble TREM2 (sTREM2) (human) (UniProt Q9NZC2); assay: MSD immunoassay of antibody-bound sTREM2 in plasma of huTrem2 KI/KI mice 24 h after 100 mg/kg i.v., anti-TREM2 capture (MAB17291), sulfo-tagged anti-human detection, normalised to the pre-dose baseline
T1 sequence: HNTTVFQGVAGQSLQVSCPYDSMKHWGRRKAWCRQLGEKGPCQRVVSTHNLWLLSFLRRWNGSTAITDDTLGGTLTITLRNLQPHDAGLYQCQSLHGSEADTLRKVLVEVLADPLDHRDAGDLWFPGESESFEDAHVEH

[2] = biological target: T1, human soluble TREM2 (sTREM2) (human); assay: MSD assay of antibody-bound sTREM2 in plasma of huTrem2 KI mice 24 hours after 100 mg/kg

binding [1]: binds
binding [2]: binds
B1: CL0020141 (antibody, V domains shown)
VH: EVTLVESGGGLVQPGGSLRLSCATSGFTFTDYYMSWVRQPPGKALEWLGFIRDKANGYTTDYSASVKGRFTISRDNSQNILYLQMNTLRAEDSATYYCSRLLRAQGFAYWGQGTLVTVSA
VL: DIVMSQSPSSLGVSIGEKVIMSCTSGQSLLYSNNQKNYLAWYQQKPGQSPKLLIYWASTRESGVPDRFTGSGSGTDFTLTINSVKAEDLAVYYCQQYYRNPFTFGSGTKLEIK
